These are yes or no findings as the source states them, for the method shown. Binding seen in cells or lysates may run through a third protein. A result given as binding can be weak or reduced; the word gives no strength. Tags and fused reporters may be left off the sequences shown.
What was measured:
Dvl2-ΔDIX-GFP = experiment: pull-down; lysate of Dvl2-ΔDIX-GFP transfected HCT116 cells mixed with purified KSRP-His; GFP-Trap beads, with or without DKC1125 (10 mM), pulldown buffer (50 mM Tris-Cl pH 7.5, 50 mM NaCl), 4 °C overnight; only the binder purified
ΔKH34-KSRP-myc = experiment: co-IP; Caco2 cells transfected with myc-tagged KSRP (WT, Δ12, Δ34, ΔC) and GFP-tagged RACK1 or V5-tagged KITENIN
ΔKH12-KSRP-myc = experiment: as above

| binding (Dvl2-ΔDIX-GFP) | binding (ΔKH34-KSRP-myc) | binding (ΔKH12-KSRP-myc) | Binder |
| --- | --- | --- | --- |
| binds | – | – | KSRP-His (bacterially expressed full-length KSRP) (protein, UniProt Q92945 1-711) MSDYSTGGPPPGPPPPAGGGGGAGGAGGGPPPGPPGAGDRGGGGPGGGGPGGGSAGGPSQPPGGGGPGIRKDAFADAVQRARQIAAKIGGDAATTVNNSTPDFGFGGQKRQLEDGDQPESKKLASQGDSISSQLGPIHPPPRTSMTEEYRVPDGMVGLIIGRGGEQINKIQQDSGCKVQISPDSGGLPERSVSLTGAPESVQKAKMMLDDIVSRGRGGPPGQFHDNANGGQNGTVQEIMIPAGKAGLVIGKGGETIKQLQERAGVKMILIQDGSQNTNVDKPLRIIGDPYKVQQACEMVMDILRERDQGGFGDRNEYGSRIGGGIDVPVPRHSVGVVIGRSGEMIKKIQNDAGVRIQFKQDDGTGPEKIAHIMGPPDRCEHAARIINDLLQSLRSGPPGPPGGPGMPPGGRGRGRGQGNWGPPGGEMTFSIPTHKCGLVIGRGGENVKAINQQTGAFVEISRQLPPNGDPNFKLFIIRGSPQQIDHAKQLIEEKIEGPLCPVGPGPGGPGPAGPMGPFNPGPFNQGPPGAPPHAGGPPPHQYPPQGWGNTYPQWQPPAPHDPSKAAAAAADPNAAWAAYYSHYYQQPPGPVPGPAPAPAAPPAQGEPPQPPPTGQSDYTKAWEEYYKKIGQQPQQPGAPPQQDYTKAWEEYYKKQAQVATGGGPGAPPGSQPDYSAAWAEYYRQQAAYYGQTPGPGGPQPPPTQQGQQQAQ |
| – | binds | binds | KITENIN-V5 (V5-tagged KITENIN) (protein, UniProt Q8TAA9 1-524) MDTESTYSGYSYYSSHSKKSHRQGERTRERHKSPRNKDGRGSEKSVTIQPPTGEPLLGNDSTRTEEVQDDNWGETTTAITGTSEHSISQEDIARISKDMEDSVGLDCKRYLGLTVASFLGLLVFLTPIAFILLPPILWRDELEPCGTICEGLFISMAFKLLILLIGTWALFFRKRRADMPRVFVFRALLLVLIFLFVVSYWLFYGVRILDSRDRNYQGIVQYAVSLVDALLFIHYLAIVLLELRQLQPMFTLQVVRSTDGESRFYSLGHLSIQRAALVVLENYYKDFTIYNPNLLTASKFRAAKHMAGLKVYNVDGPSNNATGQSRAMIAAAARRRDSSHNELYYEEAEHERRVKKRKARLVVAVEEAFIHIQRLQAEEQQKAPGEVMDPREAAQAIFPSMARALQKYLRITRQQNYHSMESILQHLAFCITNGMTPKAFLERYLSAGPTLQYDKDRWLSTQWRLVSDEAVTNGLRDGIVFVLKCLDFSLVVNVKKIPFIILSEEFIDPKSHKFVLRLQSETSV |
